# Data published in PubChem BioAssay AID493014 (National Center for Advancing Translational Sciences (NCATS), 2011).
# The other results are listed elsewhere or left out. The main result of the screen is listed elsewhere. These columns were measured beside it and carry no call. Compounds called inactive in the main read-out are mostly missing here. Words in brackets tell the shape of the fitted curve; partial curves, single points and poor fits give uncertain potencies.
# Test: qHTS Assay to Find Inhibitors of Chronic Active B-Cell Receptor Signaling
# Settings: ABC-DLBCL IkBa-CBG/CBR reporter, luminescence ratio (green luciferase fused to IkBa over red control in TMD8 lymphoma cells), 4 h
# How it was run: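 Doxycycline induced both beetle luciferases in TMD8 lymphoma cells; IKK-driven degradation limits the IkappaBalpha-fused green signal, while red luminescence normalises for cell number and nonspecific effects. Compounds tested up to 46 uM, 4 hrs.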
# [1] = measured here: CBR red luminescence, cell number
# [2] = measured here: IkBa-CBG green luminescence
SMILES,AC50 [1],AC50 [2]
Cc1ccc(C(=O)Nc2cccc3ccccc23)cc1,"1.26 µM [falling, full curve, poor fit]",–
NC(=O)[C@H]1CC2(CC(c3cccc(NC(=O)COc4ccc(Cl)cc4)c3)=NO2)CN1C(=O)c1ccccc1C(=O)c1ccccc1 (stereo partly drawn),"35.5 µM [falling, single point]",–
CCCc1ccc(OCc2ccc(C(=O)NN)o2)c(OC)c1,"3.98 µM [falling, partial curve, poor fit]",–
O=C(N/N=C/c1ccccc1)c1ccco1,"12.6 µM [falling, single point]",–
COc1cc(OC)nc(NC(=O)CSc2nc3ccccc3o2)n1,"2.31 µM [falling, partial curve]",–
Fc1ccccc1Cn1nnc2c(-n3ccnc3)ncnc21,"7.08 µM [falling, partial curve, poor fit]",–
O=c1[nH]c(=O)c2nnc(N/N=C/c3ccccc3F)nc2[nH]1,"14.1 µM [falling, single point]",–
Cc1ccc(NC2=CC(=O)C(=O)c3ccccc32)cc1,"5.17 µM [falling, full curve]","8.2 µM [rising, partial curve, poor fit]"
CCn1ccc(C(=O)N2CCN(c3ncccn3)CC2)n1,"0.112 µM [rising, full curve, poor fit]",–
O=C(CSc1ncnc2scc(-c3ccc(F)cc3)c12)c1ccc2c(c1)OCCO2,"6.51 µM [rising, full curve]",–
Cc1ccc2[nH]cc(CCCN3C(=O)c4ccccc4C3=O)c2c1,"14.6 µM [rising, partial curve, poor fit]",–
N/C(=N\OC(=O)Cc1ccccc1[N+](=O)[O-])c1ccccn1,"20 µM [falling, single point]",–
COCCCn1c(SCC(=O)NCc2ccccc2)nc2ccccc2c1=O,"0.366 µM [rising, full curve, poor fit]",–
CC(C)CC(=O)Nc1ncc([N+](=O)[O-])s1,"11.2 µM [falling, partial curve]",–
CC(NC(=O)C1CCN(S(=O)(=O)c2ccc(Br)s2)CC1)c1ccccc1 (stereo not drawn),"5.62 µM [rising, partial curve, poor fit]",–
Cc1cccc2cc(CN(Cc3ccco3)C(=O)NC3CCCCC3)c(=O)[nH]c12,"4.11 µM [falling, full curve, poor fit]",–
Cc1cc(C(=O)OCC(=O)Nc2c(Cl)cccc2Cl)c(C)o1,"29.1 µM [rising, single point]","25.9 µM [falling, partial curve]"
CC1(C)Cc2c(sc(NC(=O)c3ccc4ncsc4c3)c2C(N)=O)C(C)(C)N1,"35.5 µM [falling, single point]",–
CCOC(=O)CSC1=NC(=O)/C(=C\c2ccc(OC(C)=O)cc2)S1,"11.2 µM [falling, single point]",–

# Another view of part of the listing above.
SMILES	AC50 [1]	AC50 [2]
O=C(N/N=C/c1ccccc1)c1ccco1	12.6 µM [falling, single point]	–
COc1cc(OC)nc(NC(=O)CSc2nc3ccccc3o2)n1	2.31 µM [falling, partial curve]	–
Fc1ccccc1Cn1nnc2c(-n3ccnc3)ncnc21	7.08 µM [falling, partial curve, poor fit]	–

# More records:

SMILES,AC50 [1],AC50 [2]
O=C1C2CC=CCC2C(=O)N1c1ccc(Cc2ccncc2)cc1 (stereo not drawn),"5.8 µM [rising, full curve, poor fit]",–
COc1ccccc1-c1c(-c2ccc(O)cc2O)n[nH]c1C(F)(F)F,"39.8 µM [falling, partial curve, poor fit]",–
COc1ccc(N2CCN(C(=O)COC(=O)c3ccc(OC(F)F)cc3)CC2)cc1,"23.1 µM [rising, single point]","29.1 µM [falling, partial curve, poor fit]"
N#Cc1cc([N+](=O)[O-])ccc1NC(=O)CSc1n[nH]c(=O)n1C1CC1,–,"20.6 µM [falling, single point]"
CSc1nc2oc3c(c2c2nncn12)CC(C)(C)SC3,"5.01 µM [rising, single point]",–
COc1ccc(C(=O)Nc2ccc3c(c2)C(=O)N(C)C3=O)cc1OC,"2.51 µM [falling, partial curve, poor fit]",–
O=C(Cn1cnnn1)Nc1ccccc1Cc1ccccc1,"35.5 µM [rising, partial curve, poor fit]",–
COc1ccc(NS(=O)(=O)c2cc(NC(=O)CC3CCCC3)ccc2N2CCOCC2)cc1,"6.31 µM [rising, single point]",–
O=C(CSc1nnc(-c2cccnc2)n1Cc1ccco1)c1ccccc1,"1.58 µM [rising, full curve, poor fit]",–
COCc1cc(=O)[nH]c(Nc2nc3ccc(C)cc3o2)n1,"1.84 µM [falling, partial curve, poor fit]","16.4 µM [falling, single point]"
COCC1CCN(Cc2cn[nH]c2-c2cc(OC)c(OC)c(OC)c2)CC1,"12.6 µM [falling, single point]",–
CC(C)C1C(c2ccccc2)NC(c2ccccc2)CC1(O)c1ccc(F)cc1 (stereo not drawn),"35.5 µM [falling, single point]",–
CCCC(=O)OCC(=O)Nc1ccc2[nH]c(=O)[nH]c2c1,"6.31 µM [falling, single point]",–
COc1cccc(Cn2c(NCC(C)C)nc3c2c(=O)n(C)c(=O)n3C)c1,"18.4 µM [falling, partial curve, poor fit]",–
NC(=O)c1ccsc1NC(=O)COC(=O)c1nc(Cl)ccc1Cl,"23.1 µM [falling, single point]",–
CNC[C@H](CC1CCCCC1)NC[C@H](NCCC1CCCC1)[C@H](C)O,"11.2 µM [falling, partial curve, poor fit]",–
CCc1nnc(NC(=O)c2nc(S(=O)(=O)Cc3ccccc3)ncc2Cl)s1,"35.5 µM [falling, single point]","15.8 µM [rising, single point]"
CCN1C(=O)/C(=C\c2ccc(-c3ccc([N+](=O)[O-])cc3OC)o2)SC1=Nc1cccc(C(=O)O)c1,"3.16 µM [falling, single point]",–
O=C(N/N=C/c1cc2c(cc1Cl)OCO2)c1ccc2c(c1)OCCO2,"8.91 µM [falling, partial curve, poor fit]",–
